Article PMC12162657
Where a chain is given by its changes, count along the chain named. These are yes or no findings as the source states them, for the method shown. Binding seen in cells or lysates may run through a third protein. Some binding calls cover weakened binding; strength is not graded here. Tags and fused reporters may be left off the sequences shown.

Sequences of proteins named here, by UniProt entry; tags and fusion partners are left off.
UniProt Q9JM13: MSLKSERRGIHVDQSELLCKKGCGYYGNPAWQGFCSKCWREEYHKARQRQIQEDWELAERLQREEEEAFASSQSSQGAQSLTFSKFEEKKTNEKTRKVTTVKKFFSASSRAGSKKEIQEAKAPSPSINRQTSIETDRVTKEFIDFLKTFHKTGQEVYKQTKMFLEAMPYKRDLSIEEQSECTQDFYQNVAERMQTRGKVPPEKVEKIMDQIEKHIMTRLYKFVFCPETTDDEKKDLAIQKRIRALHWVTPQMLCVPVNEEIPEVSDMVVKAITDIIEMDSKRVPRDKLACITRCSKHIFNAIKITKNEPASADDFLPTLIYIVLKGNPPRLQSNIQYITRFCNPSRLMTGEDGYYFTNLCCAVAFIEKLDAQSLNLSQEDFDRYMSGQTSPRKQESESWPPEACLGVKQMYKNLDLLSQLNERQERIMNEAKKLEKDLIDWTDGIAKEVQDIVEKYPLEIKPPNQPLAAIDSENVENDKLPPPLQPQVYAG

Legend:
GFP-Rab21 T31N (mouse) = target: T1, GFP-Rab21 T31N (mouse) (UniProt P35282); assay: co-IP; N2a cells transfected with GFP-fusion proteins, lysed (10 mM Tris-HCl pH 7.5, 150 mM NaCl, 0.5 mM EDTA, 0.2% NP-40); pre-cleared lysate incubated 1 h at 4°C with GFP-Trap_MA magnetic agarose beads; Western blot of immunoprecipitates
T1 sequence: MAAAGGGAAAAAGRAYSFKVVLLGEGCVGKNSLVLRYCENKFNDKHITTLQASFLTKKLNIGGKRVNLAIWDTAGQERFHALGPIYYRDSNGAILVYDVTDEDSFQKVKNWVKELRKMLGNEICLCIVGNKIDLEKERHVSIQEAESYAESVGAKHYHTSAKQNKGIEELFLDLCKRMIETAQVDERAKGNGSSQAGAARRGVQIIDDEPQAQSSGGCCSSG

GFP-Rab21 WT (mouse) = target: T2, GFP-Rab21 WT (mouse) (UniProt P35282); assay: as above
T2 sequence: T1 sequence with N31T

Rabex-5 (from UniProt Q9JM13 1-491) was tested, and the binding (GFP-Rab21 T31N (mouse)) was “binds” and the binding (GFP-Rab21 WT (mouse)) was “binds”.
